# Results: article PMC10810452
# By UniProt entry, the sequences of proteins in these tests, tags left out.
# UniProt F5HCV3: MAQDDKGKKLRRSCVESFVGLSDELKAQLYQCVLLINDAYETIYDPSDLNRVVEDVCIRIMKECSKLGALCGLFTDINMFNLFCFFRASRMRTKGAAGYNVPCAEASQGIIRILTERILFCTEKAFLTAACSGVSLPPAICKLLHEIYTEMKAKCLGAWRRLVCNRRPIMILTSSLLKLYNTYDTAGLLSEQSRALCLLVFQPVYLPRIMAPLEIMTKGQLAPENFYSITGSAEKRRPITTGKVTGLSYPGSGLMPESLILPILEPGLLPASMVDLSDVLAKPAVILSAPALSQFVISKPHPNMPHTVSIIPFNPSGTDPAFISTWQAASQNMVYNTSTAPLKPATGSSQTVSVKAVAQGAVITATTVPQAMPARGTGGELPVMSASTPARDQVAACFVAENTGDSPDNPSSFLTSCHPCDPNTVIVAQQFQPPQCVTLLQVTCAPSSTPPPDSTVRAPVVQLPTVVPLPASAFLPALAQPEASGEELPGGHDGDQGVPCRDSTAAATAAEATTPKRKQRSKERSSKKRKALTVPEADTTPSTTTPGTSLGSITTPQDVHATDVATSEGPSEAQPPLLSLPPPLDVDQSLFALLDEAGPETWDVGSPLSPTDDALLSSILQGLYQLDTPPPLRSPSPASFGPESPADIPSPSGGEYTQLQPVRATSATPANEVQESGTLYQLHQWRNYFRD
# UniProt Q15596: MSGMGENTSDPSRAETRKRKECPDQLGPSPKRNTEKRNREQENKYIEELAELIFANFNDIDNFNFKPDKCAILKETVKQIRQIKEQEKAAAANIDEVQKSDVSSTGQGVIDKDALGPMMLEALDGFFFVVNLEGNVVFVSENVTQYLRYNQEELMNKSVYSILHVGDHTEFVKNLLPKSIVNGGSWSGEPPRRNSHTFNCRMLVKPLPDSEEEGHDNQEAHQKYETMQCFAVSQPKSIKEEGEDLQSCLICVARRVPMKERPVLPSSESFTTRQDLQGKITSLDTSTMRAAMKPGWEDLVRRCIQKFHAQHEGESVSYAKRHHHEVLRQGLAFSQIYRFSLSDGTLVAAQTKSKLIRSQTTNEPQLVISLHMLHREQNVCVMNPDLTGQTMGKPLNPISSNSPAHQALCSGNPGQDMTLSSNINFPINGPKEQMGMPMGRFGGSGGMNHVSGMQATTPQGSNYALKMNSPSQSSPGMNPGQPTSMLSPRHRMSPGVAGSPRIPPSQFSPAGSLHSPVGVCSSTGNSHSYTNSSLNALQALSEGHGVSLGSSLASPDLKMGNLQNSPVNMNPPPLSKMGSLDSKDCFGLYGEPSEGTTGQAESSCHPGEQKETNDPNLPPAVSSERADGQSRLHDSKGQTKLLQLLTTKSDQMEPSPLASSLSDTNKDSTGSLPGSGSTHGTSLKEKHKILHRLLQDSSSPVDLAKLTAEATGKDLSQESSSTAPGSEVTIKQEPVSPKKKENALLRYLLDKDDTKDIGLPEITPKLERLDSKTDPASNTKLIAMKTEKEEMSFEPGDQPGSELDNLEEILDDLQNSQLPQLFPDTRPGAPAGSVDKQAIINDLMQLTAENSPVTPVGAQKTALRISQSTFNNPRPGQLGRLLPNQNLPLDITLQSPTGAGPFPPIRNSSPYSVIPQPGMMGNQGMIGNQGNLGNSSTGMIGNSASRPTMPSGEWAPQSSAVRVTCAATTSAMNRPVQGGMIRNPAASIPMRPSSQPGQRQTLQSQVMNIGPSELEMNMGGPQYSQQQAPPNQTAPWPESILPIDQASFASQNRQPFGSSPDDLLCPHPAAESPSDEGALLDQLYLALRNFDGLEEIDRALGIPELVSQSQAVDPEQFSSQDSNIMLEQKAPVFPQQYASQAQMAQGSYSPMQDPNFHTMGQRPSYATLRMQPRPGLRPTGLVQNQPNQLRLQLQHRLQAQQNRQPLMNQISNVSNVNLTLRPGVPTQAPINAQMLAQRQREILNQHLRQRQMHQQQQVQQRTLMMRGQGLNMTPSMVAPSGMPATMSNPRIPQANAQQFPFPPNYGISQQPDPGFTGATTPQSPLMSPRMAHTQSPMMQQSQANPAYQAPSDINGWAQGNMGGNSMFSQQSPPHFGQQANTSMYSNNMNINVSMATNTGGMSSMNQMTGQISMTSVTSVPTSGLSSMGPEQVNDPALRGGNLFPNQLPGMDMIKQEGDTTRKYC
# No constants are given. Whether binding was seen depends on the method and setting. Binding seen in cells or lysates may run through a third protein. Here binding means that the protein was enriched with, or labelled near, the bait; the list need not be complete.
# Biological target: FLAG-HA-K-RTA (Kaposi's sarcoma-associated herpesvirus (KSHV, human herpesvirus 8)) (UniProt F5HCV3)
# Assay: affinity purification with mass spectrometry
substance,measurement,value
NCOA2 (from UniProt Q15596 1-1464),binding,binds
